In patent US20150147330A1:
These are yes or no findings as the source states them, for the method shown. Some binding calls cover weakened binding; strength is not graded here.

Protein sequences, listed by entry. Tags and fused reporters are not part of them. Lines headed by an entry give the natural chain unless they say otherwise; changes in a name come on top. Chains listed by the source or under a name are the forms on record and can include a tag or linker. Residues count along the entry.
recombinant GPC3-human Fc (P51654, residues 25-559): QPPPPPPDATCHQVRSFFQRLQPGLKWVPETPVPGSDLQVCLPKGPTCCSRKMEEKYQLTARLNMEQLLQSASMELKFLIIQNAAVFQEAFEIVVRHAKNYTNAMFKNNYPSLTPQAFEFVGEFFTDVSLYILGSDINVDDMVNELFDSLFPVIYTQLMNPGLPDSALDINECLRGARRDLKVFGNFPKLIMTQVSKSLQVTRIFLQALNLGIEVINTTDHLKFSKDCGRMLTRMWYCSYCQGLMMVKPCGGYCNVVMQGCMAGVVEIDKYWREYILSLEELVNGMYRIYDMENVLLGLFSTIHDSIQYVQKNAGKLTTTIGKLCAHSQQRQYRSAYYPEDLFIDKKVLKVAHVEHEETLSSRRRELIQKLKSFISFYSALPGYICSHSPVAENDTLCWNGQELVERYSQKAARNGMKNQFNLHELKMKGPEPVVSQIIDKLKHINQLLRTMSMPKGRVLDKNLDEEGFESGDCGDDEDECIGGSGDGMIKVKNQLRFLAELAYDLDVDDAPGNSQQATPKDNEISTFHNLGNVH
GPC3AHS (recombinant GPC3 without HS) (P51654, form named): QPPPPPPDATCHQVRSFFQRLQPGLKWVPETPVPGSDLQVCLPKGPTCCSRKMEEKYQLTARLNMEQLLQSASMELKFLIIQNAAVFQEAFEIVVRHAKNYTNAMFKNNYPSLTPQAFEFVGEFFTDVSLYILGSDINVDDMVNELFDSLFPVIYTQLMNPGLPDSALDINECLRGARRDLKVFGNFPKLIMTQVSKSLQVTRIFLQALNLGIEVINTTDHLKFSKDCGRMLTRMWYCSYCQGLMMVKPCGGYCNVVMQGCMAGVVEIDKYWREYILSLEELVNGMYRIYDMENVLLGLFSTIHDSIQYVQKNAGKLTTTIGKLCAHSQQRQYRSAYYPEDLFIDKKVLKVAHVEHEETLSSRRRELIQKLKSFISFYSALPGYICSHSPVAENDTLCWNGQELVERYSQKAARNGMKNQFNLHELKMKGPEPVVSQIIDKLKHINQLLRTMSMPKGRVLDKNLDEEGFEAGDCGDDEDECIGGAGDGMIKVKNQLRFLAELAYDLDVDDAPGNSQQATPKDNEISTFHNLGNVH

B1: YP8 (antibody, V domains shown)
VH: EVQLVGSGGGLVQPEGSLKLSCAASGFTFKTNAMNWVRQAPGKGLEWVARIRNKTNNYATYYADSVKDRFTISRDDSQSMLYLQMNNLKTEDTAMYFCVAGNSFAYWGQGTLVTVSA
VL: DIVMSQSPSSLAVSVGEKVTVNCKSSQSLLYSNNQKNYLAWYQQKPGQSPKLLIYWASTREYGVPDRFTGSGSGTDFTLTISSVKAEDLAVYYCQQYYNYPLTFGAGTKLELK
B2: YP6 (antibody, V domains shown)
VH: B1 VH
VL: B1 VL

How the values were obtained:
[1] = biological target: GPC3AHS (recombinant GPC3 without HS) (UniProt P51654); experiment: ELISA on coated GPC3AHS (weaker signal than on wild type)
[2] = biological target: recombinant GPC3-human Fc (UniProt P51654); experiment: ELISA on coated recombinant GPC3

Row | Binder | binding [1] | binding [2]
1 | B1 | binds | binds
2 | B2 | binds | binds
